These results are taken from article PMC8918193.

These are yes or no findings as the source states them, for the method shown. In cells and extracts the contact can be indirect. A result given as binding can be weak or reduced; the word gives no strength.

Test [1] deals with T1, casein kinase 1α (CK1α) (rat (endogenous in NRK-49F)) (UniProt P97633).
T1 sequence: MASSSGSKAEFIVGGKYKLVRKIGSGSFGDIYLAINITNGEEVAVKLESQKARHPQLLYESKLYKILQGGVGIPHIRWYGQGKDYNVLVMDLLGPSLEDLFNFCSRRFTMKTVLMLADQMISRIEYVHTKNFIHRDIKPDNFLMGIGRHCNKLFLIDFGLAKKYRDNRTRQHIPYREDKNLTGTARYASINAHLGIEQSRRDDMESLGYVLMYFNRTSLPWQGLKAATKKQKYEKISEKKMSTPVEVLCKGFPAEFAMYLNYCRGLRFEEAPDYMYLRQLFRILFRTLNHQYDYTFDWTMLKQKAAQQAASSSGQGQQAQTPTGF
Briefly: co-IP; NRK-49F cells lysed in NP40 buffer (50 mM Tris, 150 mM NaCl, 1 mM EDTA, 0.5% NP-40, 1 mM PMSF); about 500 µg cell protein with antibody against HRD1, GSK3β or CK1α overnight at 4 °C, protein A/G agarose beads 6 h, three washes, immunoblot; IgG as control. (In western blotting, separated proteins are transferred to a membrane and probed.)

For test [2], the target named is HMG-CoA reductase degradation protein 1 (HRD1) (rat (endogenous in NRK-49F)). The description is as above.

Consider “HMG-CoA reductase degradation protein 1 (HRD1) (rat (endogenous in NRK-49F))”, for which the binding entry in test [1] was “binds”.

B1: casein kinase 1α (CK1α) (protein, UniProt P97633 1-325)
chain: MASSSGSKAEFIVGGKYKLVRKIGSGSFGDIYLAINITNGEEVAVKLESQKARHPQLLYESKLYKILQGGVGIPHIRWYGQGKDYNVLVMDLLGPSLEDLFNFCSRRFTMKTVLMLADQMISRIEYVHTKNFIHRDIKPDNFLMGIGRHCNKLFLIDFGLAKKYRDNRTRQHIPYREDKNLTGTARYASINAHLGIEQSRRDDMESLGYVLMYFNRTSLPWQGLKAATKKQKYEKISEKKMSTPVEVLCKGFPAEFAMYLNYCRGLRFEEAPDYMYLRQLFRILFRTLNHQYDYTFDWTMLKQKAAQQAASSSGQGQQAQTPTGF
For B1, in test [2], the binding result is “binds”.
